Test results reported in article PMC4070648.
Results are given in words; binding and its absence hold for the method and conditions named. In cells and extracts the contact can be indirect. Some entries that bind do so weakly or less than the wild type. Blank lines part the entries; values can stand above or below the substance they belong to.

Chains of the proteins cited; added tags and fusions are not shown.
UniProt Q9UGN5: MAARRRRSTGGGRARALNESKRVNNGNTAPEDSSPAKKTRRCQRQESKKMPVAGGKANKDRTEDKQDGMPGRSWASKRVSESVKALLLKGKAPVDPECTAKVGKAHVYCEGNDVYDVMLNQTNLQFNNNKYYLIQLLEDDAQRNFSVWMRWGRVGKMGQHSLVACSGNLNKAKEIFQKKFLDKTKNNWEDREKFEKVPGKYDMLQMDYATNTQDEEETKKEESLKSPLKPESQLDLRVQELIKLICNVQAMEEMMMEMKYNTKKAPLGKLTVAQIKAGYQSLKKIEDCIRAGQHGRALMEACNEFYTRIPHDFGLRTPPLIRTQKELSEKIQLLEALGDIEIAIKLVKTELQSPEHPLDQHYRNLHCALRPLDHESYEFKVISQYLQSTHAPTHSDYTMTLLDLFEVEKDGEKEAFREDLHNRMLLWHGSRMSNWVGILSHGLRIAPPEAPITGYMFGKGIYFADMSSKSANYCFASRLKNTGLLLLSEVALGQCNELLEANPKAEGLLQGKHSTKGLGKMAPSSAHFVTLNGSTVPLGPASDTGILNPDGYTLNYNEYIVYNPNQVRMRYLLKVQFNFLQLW
UniProt Q7Z2W4: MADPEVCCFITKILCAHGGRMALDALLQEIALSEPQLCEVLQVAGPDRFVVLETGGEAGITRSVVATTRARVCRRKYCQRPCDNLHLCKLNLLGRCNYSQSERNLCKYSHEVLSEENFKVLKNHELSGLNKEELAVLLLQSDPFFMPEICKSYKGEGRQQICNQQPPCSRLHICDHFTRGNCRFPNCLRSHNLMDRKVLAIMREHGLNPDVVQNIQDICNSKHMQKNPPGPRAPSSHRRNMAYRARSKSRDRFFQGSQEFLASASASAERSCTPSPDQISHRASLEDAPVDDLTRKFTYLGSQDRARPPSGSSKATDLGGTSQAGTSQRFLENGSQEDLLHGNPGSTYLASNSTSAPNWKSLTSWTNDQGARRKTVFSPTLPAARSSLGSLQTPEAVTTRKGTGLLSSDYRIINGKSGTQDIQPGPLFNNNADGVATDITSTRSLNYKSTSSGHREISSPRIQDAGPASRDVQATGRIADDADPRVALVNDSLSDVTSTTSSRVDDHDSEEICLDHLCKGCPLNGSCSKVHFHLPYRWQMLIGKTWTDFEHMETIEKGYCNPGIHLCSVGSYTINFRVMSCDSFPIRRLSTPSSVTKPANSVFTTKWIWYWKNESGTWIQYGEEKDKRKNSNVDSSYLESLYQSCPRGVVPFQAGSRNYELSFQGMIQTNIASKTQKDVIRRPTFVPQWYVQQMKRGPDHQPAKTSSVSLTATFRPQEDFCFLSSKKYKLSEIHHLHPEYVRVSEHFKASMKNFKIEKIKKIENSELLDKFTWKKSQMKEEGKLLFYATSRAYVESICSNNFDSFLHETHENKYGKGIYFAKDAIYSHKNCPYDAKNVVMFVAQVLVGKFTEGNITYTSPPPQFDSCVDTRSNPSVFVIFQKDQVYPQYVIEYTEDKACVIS
UniProt Q9H0J9: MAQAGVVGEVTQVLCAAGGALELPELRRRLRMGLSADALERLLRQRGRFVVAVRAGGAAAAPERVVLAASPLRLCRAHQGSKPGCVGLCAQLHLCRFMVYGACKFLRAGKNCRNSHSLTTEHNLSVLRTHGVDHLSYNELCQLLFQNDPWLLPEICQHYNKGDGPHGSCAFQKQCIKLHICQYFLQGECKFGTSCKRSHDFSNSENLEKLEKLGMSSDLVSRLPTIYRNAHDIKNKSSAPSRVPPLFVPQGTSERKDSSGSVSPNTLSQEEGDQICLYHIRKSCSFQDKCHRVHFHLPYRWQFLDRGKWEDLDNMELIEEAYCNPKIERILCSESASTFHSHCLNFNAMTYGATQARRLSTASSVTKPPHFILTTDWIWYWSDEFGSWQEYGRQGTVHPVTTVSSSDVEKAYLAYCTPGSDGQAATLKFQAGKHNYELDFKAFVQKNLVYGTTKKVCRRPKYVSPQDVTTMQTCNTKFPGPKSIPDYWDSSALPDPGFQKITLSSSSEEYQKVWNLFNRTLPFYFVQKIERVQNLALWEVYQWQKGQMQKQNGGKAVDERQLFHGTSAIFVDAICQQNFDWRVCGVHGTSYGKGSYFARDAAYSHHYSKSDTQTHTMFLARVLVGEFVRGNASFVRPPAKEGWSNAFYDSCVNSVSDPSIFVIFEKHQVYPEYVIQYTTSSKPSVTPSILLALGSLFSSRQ
UniProt P42224: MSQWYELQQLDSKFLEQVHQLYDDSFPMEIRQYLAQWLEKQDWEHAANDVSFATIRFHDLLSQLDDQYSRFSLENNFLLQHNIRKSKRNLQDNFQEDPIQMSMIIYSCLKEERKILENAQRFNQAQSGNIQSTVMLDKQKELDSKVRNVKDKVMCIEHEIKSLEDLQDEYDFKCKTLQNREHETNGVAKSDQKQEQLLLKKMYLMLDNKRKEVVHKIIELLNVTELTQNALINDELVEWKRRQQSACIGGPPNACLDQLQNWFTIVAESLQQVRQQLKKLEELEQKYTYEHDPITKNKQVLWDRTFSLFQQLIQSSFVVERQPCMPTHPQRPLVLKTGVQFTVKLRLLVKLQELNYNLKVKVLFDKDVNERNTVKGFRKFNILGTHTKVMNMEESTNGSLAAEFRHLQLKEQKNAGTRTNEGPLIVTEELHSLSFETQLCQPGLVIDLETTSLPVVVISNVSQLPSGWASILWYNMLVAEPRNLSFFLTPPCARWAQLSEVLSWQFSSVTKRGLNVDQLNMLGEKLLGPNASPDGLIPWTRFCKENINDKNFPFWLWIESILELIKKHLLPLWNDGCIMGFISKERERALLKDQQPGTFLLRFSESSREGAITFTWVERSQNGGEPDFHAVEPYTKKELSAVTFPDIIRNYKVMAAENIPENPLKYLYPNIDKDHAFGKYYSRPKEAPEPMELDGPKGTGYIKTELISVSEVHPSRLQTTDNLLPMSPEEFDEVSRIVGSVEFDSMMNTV

Columns and labels:
[1] = biological target: diphtheria-toxin-like macrodomain containing ADP-ribosyltransferase-9 (ARTD9) (human (endogenous in PC3)) (UniProt Q8IXQ6); experiment: co-IP; endogenous ARTD9 complexes precipitated from PC3 cell extracts with anti-ARTD9 antibody covalently coupled to tosyl-activated Dynabeads; cells stimulated 1 h with IFNγ (200 U/ml) in Figure 2H and S5E; no ADP-ribose added; immunoblot
[2] = biological target: mono-ADP-ribosyltransferase ARTD8 (human (endogenous in PC3)) (UniProt Q460N5); experiment: co-IP; endogenous ARTD8 complexes precipitated from PC3 cell extracts with epitope affinity purified anti-ARTD8 antibodies; no ADP-ribose added; immunoblot
[3] = biological target: diphtheria-toxin-like macrodomain containing ADP-ribosyltransferase-9 (ARTD9) (human (endogenous in PC3)) (UniProt Q8IXQ6); experiment: co-IP; endogenous complexes precipitated from nuclear extracts of PC3 cells with anti-ARTD9 antibodies; immunoblot

Substance: ARTD2 (from UniProt Q9UGN5 1-583)
binding [1]: no binding

Substance: ARTD13 (from UniProt Q7Z2W4 1-902)
binding [1]: binds

Substance: ARTD12 (from UniProt Q9H0J9 1-701)
binding [1]: binds

binding [2]: binds
Substance: ARTD1 (from UniProt P09874 1-1014)
binding [1]: binds weakly

Substance: STAT1 (from UniProt P42224 1-750)
binding [3]: binds

Substance: diphtheria-toxin-like macrodomain containing ADP-ribosyltransferase-9 (ARTD9) (from UniProt Q8IXQ6 1-854) (other; other documents disagree on this pair)
binding [2]: binds
